These are yes or no findings as the source states them, for the method shown. Some results given as binding are weak or reduced against the parent protein; the word gives no strength.
Legend:
[1] = target: T1, Mex67 (residues 1–599, full length) (S. cerevisiae) (UniProt Q99257); assay: co-purification; Mex67 construct and Mtr2 co-expressed from pETDuet-1 in E. coli; Ni-NTA, TEV cleavage, heparin, Superdex 200 in 20 mM HEPES-NaOH pH 8.0, 200 mM NaCl, 4°C
T1 sequence: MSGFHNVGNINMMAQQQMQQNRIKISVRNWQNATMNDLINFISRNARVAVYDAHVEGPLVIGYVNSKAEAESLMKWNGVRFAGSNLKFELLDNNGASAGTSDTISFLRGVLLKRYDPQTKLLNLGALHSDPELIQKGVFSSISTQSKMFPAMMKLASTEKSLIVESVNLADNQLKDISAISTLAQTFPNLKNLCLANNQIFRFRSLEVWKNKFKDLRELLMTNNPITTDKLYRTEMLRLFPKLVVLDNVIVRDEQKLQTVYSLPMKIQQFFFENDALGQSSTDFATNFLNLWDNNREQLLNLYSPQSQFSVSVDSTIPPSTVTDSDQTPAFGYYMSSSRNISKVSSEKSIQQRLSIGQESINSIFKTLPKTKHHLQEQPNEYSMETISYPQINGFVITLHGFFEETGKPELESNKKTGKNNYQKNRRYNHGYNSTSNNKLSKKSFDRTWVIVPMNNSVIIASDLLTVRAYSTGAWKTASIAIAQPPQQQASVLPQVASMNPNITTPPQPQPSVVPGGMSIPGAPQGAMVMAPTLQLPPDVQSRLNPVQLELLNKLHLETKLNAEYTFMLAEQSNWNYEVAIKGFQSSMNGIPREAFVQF

[2] = target: T2, Mex67^NTF2L (residues 264–487) (S. cerevisiae) (UniProt Q99257); assay: as above
T2 sequence: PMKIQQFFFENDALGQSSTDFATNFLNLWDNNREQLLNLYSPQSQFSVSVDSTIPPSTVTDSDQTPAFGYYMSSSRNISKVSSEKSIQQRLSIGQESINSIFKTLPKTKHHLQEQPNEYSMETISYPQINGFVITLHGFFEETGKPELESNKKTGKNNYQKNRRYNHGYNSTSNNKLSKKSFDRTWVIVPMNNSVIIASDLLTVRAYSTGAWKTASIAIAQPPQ

[3] = target: T3, Mex67^LRR-NTF2L (residues 101–487) (S. cerevisiae) (UniProt Q99257); assay: SAXS with on-line SEC; purified complexes on a Superdex 200 Increase 3.2/300 column on-line with SAXS, 20°C; profile and estimated Mw compared with models of the complex; both purified
T3 sequence: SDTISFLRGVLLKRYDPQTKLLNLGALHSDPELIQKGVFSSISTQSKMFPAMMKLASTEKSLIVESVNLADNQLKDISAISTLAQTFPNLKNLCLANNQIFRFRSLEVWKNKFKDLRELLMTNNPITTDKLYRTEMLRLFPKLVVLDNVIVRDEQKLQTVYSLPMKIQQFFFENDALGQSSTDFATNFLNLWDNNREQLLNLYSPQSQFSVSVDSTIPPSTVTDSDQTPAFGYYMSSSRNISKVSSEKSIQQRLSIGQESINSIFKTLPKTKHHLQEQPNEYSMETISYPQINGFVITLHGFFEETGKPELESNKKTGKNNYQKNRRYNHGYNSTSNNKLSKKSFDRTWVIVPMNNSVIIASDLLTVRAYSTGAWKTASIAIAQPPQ

[4] = target: T4, Mex67^ΔUBA (residues 1–487) (S. cerevisiae) (UniProt Q99257); assay: as above
T4 sequence: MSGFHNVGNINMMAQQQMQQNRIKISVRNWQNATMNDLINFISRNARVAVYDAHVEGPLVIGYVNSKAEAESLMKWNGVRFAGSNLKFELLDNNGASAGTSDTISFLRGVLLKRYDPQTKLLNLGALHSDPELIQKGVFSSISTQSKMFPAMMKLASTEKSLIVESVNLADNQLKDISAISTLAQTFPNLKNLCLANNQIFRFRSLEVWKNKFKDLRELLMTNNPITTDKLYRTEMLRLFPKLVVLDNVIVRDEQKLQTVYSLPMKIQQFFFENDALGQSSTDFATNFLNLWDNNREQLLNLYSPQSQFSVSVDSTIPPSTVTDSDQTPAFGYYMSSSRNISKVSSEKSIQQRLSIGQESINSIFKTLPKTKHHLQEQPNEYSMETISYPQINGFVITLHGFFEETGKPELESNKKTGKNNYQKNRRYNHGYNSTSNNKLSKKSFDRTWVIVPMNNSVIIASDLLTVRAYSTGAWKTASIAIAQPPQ

[5] = target: T4, Mex67^ΔUBA (residues 1–487) (S. cerevisiae); assay: crystal structure; Mex67^ΔUBA:Mtr2 complex, sitting-drop vapor diffusion at 4°C, 10% PEG 8000, 0.01 M zinc acetate, 0.1 M Tris-HCl pH 8.0; 3.3 Å, P2_1, four copies in the asymmetric unit; both purified

Measured: binding

B1: Mtr2 (protein, UniProt P34232 1-184)
chain: MNTNSNTMVMNDANQAQITATFTKKILAHLDDPDSNKLAQFVQLFNPNNCRIIFNATPFAQATVFLQMWQNQVVQTQHALTGVDYHAIPGSGTLICNVNCKVRFDESGRDKMGQDATVPIQPNNTGNRNRPNDMNKPRPLWGPYFGISLQLIIDDRIFRNDFNGVISGFNYNMVYKPEDSLLKI
binds: all assays above

— publication PMC4330389, “Domain organization within the nuclear export factor Mex67:Mtr2 generates an extended mRNA binding surface”
